Counter-ions that a name gives are not always drawn. The list shows a part of the results. Repeats in this data set agree poorly, so a single value says little.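 A screen tested FDA-approved drugs combined with one-eighth-MIC colistin against a clinical mcr-1-positive, multidrug-resistant E. coli isolate, measuring OD600 at 24 h. Controls were untreated bacteria (growth) and broth alone (blank). An OD600 under 0.2 marked a combination as active.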
test system: Escherichia coli 42 (mcr-1-positive clinical isolate); experiment: OD600 after 24 h growth with compound plus colistin (absorbance units (OD600)); higher = more bacterial growth (less inhibition); conditions: first compound 25 µM; colistin concentration 0.5 ug/mL; incubation time 24 h; 37 °C

OD600, inactive:
N[C@@H](Cc1cc(I)c(Oc2cc(I)c(O)c(I)c2)c(I)c1)C(=O)O [L-Thyroxine] + CCC(C)CCCC(=O)N[C@@H](CCN)C(=O)N[C@H](C(=O)N[C@@H](CCN)C(=O)N[C@H]1CCNC(=O)[C@H]([C@@H](C)O)NC(=O)[C@H](CCN)NC(=O)[C@H](CCN)NC(=O)[C@H](CC(C)C)NC(=O)[C@@H](CC(C)C)NC(=O)[C@H](CCN)NC1=O)[C@@H](C)O [colistin] 1.14, N[C@@H](Cc1cc(I)c(Oc2ccc(O)c(I)c2)c(I)c1)C(=O)O [Liothyronine] + CCC(C)CCCC(=O)N[C@@H](CCN)C(=O)N[C@H](C(=O)N[C@@H](CCN)C(=O)N[C@H]1CCNC(=O)[C@H]([C@@H](C)O)NC(=O)[C@H](CCN)NC(=O)[C@H](CCN)NC(=O)[C@H](CC(C)C)NC(=O)[C@@H](CC(C)C)NC(=O)[C@H](CCN)NC1=O)[C@@H](C)O [colistin] 1.12, CC(C)NCC(O)COc1ccc(CCOCC2CC2)cc1 (centres undefined) [Betaxolol hydrochloride] + CCC(C)CCCC(=O)N[C@@H](CCN)C(=O)N[C@H](C(=O)N[C@@H](CCN)C(=O)N[C@H]1CCNC(=O)[C@H]([C@@H](C)O)NC(=O)[C@H](CCN)NC(=O)[C@H](CCN)NC(=O)[C@H](CC(C)C)NC(=O)[C@@H](CC(C)C)NC(=O)[C@H](CCN)NC1=O)[C@@H](C)O [colistin] 1.1, O=NN(CCCl)C(=O)NC1CCCCC1 [Lomustine] + CCC(C)CCCC(=O)N[C@@H](CCN)C(=O)N[C@H](C(=O)N[C@@H](CCN)C(=O)N[C@H]1CCNC(=O)[C@H]([C@@H](C)O)NC(=O)[C@H](CCN)NC(=O)[C@H](CCN)NC(=O)[C@H](CC(C)C)NC(=O)[C@@H](CC(C)C)NC(=O)[C@H](CCN)NC1=O)[C@@H](C)O [colistin] 0.904
